The list shows a part of the results. Residues, ends and D or L forms follow the SMILES beside them. *: point of attachment. Cbz = O=C(OCc1ccccc1)*
Tests used:
Assay in all cases: log2 fold change, soluble protein after heating vs DMSO (PISA); higher = thermal stabilisation; K562 cells, 10 uM, 30 min; active = over 0.2 and 3.5 SD of the protein, either way, in both replicates (recomputed)
erlotinib = compound: C#Cc1cccc(Nc2ncnc3cc(OCCOC)c(OCCOC)cc23)c1 [erlotinib]
Method in brief: (§1)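 Quantification of soluble protein used TMTpro 16plex LC-MS/MS, with channel sums equalised. Samples were the supernatant after 21,000xg for 90 min of pooled aliquots from K562 cells (2×10^6 cells/mL) treated with 10 μM compound for 30 min, heated for 3 min over 48°C-58°C, and extracted in PBS with 0.5% NP-40 at 4°C. Values, from duplicates, describe thermal stability against control samples on a log2 fold-change scale.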

Protein sequences, listed by entry. Tags and fused reporters are not part of them. Lines headed by an entry give the natural chain unless they say otherwise; changes in a name come on top.
UniProt Q6DT37: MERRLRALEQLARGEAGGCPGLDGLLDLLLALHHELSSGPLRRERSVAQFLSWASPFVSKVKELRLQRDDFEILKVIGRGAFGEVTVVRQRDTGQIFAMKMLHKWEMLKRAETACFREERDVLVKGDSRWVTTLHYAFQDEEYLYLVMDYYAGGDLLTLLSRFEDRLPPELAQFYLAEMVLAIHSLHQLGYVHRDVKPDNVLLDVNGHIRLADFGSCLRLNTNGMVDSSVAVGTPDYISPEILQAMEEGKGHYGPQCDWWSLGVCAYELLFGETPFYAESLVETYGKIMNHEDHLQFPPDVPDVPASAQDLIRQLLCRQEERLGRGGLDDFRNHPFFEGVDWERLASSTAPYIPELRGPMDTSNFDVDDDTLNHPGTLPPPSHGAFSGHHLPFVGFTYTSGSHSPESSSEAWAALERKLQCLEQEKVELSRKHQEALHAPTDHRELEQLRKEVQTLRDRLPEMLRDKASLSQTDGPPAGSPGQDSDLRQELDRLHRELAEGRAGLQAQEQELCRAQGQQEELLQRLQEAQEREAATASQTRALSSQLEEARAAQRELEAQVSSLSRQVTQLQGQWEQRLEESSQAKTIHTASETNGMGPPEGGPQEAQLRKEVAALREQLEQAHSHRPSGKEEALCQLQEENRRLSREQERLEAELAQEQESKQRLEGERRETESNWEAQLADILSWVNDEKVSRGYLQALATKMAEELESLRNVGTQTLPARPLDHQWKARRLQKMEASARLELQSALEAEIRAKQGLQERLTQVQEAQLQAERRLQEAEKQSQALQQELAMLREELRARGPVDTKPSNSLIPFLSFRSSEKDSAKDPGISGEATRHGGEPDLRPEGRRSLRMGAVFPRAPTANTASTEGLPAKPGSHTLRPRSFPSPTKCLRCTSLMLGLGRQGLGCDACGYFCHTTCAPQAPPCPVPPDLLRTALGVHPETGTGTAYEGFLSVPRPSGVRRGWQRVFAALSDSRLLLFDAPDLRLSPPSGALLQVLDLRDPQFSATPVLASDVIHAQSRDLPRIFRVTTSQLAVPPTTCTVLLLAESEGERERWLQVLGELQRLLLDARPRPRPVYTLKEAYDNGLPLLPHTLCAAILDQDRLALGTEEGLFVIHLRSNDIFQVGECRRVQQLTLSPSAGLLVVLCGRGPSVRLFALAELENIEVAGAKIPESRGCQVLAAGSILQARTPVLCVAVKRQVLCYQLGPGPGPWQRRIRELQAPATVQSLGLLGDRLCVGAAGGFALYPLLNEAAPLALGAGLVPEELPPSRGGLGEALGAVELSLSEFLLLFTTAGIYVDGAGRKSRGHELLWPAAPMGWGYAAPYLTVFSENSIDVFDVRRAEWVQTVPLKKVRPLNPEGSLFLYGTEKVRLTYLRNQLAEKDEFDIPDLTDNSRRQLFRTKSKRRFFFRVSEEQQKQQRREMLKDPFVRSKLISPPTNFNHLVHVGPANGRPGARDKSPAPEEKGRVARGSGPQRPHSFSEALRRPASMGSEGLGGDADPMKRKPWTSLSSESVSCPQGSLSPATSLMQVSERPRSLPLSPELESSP
UniProt O14646: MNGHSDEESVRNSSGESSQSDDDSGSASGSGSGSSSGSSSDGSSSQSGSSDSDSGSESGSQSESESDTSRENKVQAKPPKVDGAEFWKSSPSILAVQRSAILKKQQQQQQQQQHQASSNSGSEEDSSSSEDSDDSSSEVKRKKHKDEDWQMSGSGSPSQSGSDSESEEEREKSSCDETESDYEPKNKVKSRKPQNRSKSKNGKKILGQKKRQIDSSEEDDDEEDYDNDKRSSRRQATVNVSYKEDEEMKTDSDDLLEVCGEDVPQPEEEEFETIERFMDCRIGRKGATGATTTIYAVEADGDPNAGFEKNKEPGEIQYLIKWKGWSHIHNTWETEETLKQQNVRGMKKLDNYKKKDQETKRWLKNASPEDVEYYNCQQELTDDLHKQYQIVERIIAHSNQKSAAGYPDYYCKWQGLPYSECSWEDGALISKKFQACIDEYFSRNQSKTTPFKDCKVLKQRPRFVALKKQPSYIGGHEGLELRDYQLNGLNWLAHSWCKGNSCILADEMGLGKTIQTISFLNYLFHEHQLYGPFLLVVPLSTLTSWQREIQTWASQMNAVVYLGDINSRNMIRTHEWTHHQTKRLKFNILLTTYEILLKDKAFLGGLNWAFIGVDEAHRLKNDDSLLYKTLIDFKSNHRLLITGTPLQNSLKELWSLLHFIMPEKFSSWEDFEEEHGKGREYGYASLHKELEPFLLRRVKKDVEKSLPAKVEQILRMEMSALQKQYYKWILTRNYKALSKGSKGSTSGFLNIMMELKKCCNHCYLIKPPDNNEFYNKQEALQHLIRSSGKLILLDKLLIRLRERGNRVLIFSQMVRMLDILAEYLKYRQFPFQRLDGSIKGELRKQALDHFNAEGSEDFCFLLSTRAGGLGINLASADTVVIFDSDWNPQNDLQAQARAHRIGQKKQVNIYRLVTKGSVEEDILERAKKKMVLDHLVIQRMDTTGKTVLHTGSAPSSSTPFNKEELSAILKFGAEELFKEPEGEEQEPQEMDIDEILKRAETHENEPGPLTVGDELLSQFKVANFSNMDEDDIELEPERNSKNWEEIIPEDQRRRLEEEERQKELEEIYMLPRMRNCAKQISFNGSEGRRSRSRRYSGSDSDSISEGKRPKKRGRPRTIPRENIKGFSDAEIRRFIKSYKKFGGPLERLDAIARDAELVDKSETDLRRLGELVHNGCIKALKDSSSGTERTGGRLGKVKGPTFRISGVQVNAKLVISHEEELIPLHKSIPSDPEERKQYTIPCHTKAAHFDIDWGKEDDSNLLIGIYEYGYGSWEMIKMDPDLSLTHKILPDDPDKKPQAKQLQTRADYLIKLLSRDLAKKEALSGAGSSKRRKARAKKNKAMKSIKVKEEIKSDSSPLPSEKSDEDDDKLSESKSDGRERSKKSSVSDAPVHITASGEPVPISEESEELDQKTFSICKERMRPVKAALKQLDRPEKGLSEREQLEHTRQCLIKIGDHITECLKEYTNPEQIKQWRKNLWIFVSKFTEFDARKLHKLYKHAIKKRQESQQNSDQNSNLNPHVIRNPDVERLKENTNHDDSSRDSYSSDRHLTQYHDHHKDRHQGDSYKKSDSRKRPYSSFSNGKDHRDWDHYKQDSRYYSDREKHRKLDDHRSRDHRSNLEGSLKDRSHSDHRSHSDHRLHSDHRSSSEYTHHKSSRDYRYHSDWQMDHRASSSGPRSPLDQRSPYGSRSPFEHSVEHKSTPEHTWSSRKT
UniProt Q9BS16: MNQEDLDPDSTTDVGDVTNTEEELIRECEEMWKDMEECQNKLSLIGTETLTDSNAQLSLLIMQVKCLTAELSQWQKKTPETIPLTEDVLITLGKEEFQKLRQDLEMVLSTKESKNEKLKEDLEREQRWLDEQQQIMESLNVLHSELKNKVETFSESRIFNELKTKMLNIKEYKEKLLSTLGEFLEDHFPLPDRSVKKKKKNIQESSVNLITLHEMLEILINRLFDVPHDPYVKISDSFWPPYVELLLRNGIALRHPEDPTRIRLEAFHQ
UniProt Q15517: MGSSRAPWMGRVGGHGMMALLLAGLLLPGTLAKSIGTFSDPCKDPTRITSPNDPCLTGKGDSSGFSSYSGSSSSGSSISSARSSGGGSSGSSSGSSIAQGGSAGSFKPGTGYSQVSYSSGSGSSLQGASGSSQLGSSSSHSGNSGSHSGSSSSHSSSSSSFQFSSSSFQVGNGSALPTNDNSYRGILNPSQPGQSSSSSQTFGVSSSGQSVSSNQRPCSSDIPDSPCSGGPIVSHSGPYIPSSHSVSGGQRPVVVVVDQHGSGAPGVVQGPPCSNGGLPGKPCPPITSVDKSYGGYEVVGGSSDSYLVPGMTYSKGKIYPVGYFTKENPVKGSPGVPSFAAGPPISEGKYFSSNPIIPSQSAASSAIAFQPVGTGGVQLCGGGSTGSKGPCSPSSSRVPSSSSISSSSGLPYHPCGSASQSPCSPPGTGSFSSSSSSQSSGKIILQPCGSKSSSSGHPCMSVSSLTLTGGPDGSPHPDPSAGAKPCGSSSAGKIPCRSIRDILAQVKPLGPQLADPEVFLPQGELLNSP
UniProt Q6P2H3: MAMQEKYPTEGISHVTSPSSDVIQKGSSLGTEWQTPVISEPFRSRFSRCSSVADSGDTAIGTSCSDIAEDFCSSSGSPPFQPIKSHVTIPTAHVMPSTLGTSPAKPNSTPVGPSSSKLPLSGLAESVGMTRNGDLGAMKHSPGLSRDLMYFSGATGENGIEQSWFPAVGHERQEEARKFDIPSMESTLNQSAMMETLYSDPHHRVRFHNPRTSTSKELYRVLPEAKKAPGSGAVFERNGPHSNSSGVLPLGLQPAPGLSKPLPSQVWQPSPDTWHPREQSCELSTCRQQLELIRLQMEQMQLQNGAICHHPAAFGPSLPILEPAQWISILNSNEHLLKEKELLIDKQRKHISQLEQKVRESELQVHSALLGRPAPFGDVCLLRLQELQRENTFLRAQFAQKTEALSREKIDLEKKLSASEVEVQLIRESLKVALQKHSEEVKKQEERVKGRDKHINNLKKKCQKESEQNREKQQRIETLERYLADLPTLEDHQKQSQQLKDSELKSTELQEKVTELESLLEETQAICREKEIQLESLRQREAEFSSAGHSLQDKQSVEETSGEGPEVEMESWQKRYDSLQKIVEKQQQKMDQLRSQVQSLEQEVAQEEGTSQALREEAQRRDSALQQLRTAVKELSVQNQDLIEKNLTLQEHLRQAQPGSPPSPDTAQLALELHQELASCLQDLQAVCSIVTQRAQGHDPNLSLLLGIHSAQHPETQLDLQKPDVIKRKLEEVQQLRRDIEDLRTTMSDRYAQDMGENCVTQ
UniProt Q96EP1: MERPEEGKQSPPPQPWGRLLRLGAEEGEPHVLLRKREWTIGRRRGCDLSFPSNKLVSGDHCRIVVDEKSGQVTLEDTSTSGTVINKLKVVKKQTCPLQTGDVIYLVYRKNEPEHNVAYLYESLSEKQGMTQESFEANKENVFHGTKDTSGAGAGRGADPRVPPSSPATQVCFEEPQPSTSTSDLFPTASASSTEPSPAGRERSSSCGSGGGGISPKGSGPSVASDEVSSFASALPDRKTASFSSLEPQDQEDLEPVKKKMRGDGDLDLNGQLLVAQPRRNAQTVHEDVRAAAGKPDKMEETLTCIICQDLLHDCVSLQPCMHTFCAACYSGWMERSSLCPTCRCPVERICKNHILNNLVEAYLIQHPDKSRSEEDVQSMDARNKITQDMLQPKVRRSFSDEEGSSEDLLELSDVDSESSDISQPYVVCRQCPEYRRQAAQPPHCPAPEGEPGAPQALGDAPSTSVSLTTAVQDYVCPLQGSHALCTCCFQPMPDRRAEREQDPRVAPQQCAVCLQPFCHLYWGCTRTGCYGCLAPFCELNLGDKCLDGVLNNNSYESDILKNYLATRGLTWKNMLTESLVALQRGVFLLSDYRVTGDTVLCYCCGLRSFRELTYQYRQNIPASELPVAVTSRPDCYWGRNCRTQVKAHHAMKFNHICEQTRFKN
UniProt Q9Y592: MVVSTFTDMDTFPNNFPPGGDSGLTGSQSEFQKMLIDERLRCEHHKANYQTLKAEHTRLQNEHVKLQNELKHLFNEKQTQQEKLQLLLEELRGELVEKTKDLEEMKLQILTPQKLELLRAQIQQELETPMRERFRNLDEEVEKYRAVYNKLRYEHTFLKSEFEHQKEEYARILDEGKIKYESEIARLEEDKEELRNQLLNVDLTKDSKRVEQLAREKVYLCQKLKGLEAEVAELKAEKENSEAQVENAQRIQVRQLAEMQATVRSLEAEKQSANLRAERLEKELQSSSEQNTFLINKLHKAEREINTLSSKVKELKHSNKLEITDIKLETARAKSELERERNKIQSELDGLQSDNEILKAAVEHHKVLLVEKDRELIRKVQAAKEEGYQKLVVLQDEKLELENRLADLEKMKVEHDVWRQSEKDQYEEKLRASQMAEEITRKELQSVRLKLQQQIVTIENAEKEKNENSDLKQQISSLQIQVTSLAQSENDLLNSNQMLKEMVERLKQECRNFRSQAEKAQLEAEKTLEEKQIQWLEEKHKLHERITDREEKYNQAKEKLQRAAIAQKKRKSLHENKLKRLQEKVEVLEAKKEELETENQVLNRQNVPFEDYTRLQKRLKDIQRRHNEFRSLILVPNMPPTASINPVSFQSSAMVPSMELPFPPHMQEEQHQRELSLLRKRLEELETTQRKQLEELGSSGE
UniProt Q53HL2: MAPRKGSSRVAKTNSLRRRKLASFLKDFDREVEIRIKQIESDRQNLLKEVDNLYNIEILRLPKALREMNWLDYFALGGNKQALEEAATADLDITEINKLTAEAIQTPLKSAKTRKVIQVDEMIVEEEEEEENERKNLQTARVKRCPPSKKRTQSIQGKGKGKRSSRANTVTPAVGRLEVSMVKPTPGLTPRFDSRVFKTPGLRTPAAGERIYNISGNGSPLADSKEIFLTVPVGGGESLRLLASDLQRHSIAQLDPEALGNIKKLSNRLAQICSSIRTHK

[1] = compound: C1=CC(=CC=C1C2=NC3=C(N2)C=C(C=C3)C(=O)N)OC4=CC=C(C=C4)Cl
Method in brief: as §1

[2] = compound: CC(C)C1=C2N=C(C=C(N2N=C1)NCC3=CC=CC=C3)NCCCCCCN
Method in brief: as §1

[3] = compound: C/C(=N\NC(=O)C1=CC(=CC=C1)S(=O)(=O)N2CCOCC2)/C3=C(C=CC(=C3)Cl)O
Method in brief: as §1

[4] = compound: C1=CC(=C(C=C1Cl)C2=NC3=NC=CN=C3C(=N2)NC4=CC=NC=C4)F
Method in brief: as §1

[5] = compound: C1=CC2=C(C=CC(=C2)/C=C\3/C(=O)NC(=NCC4=CC=CS4)S3)N=C1
Method in brief: as §1

[6] = compound: C1=CC=C2C(=C1)C3=NNC4=CC=CC(=C43)C2=O
Method in brief: as §1

[7] = compound: CC(=O)c1cnc2ccc(-c3cc(Cl)c(O)c(Cl)c3)nc2c1N[C@H]1CC[C@H](CN(C)C)CC1
Method in brief: as §1

[8] = compound: CC(C)(O)CC(=O)NCCn1ccc2ncnc(Nc3ccc(Oc4cccc(C(F)(F)F)c4)c(Cl)c3)c21
Method in brief: as §1

[9] = compound: C1=CC2=NC=CN=C2C=C1/C=C/3\C(=O)NC(=O)S3
Method in brief: as §1

IRAK-1-4 Inhibitor I = compound: C1COCCN1CCN2C3=CC=CC=C3N=C2NC(=O)C4=CC(=CC=C4)[N+](=O)[O-] [IRAK-1-4 Inhibitor I]
Method in brief: as §1

ibrutinib = compound: C=CC(=O)N1CCC[C@@H](n2nc(-c3ccc(Oc4ccccc4)cc3)c3c(N)ncnc32)C1 [ibrutinib]
Method in brief: as §1

pinometostat = compound: CC(C)N(C[C@H]1O[C@@H](n2cnc3c(N)ncnc32)[C@H](O)[C@@H]1O)[C@H]1C[C@@H](CCc2nc3cc(C(C)(C)C)ccc3[nH]2)C1 [pinometostat]
Method in brief: as §1

[10] = compound: CC1=C(C(CC(=O)N1)C2=CC=C(C=C2)C(F)(F)F)C(=O)NC3=C(C=C4C(=C3)C=NN4)F
Method in brief: as §1

[11] = compound: C1CCN(C1)C(=O)NC2=CC=CC(=C2)NC3=NC=C(C(=N3)NCCC4=CN=CN4)Br
Method in brief: as §1

[12] = compound: C1CN(CCC1(CC2=CC=C(C=C2)Cl)N)C3=NC=NC4=C3C=CN4
Method in brief: as §1

[13] = compound: CC1=C(C2=C(C=C1)C(=O)C3=CC=CC=C3N2CCCN)C
Method in brief: as §1

[14] = compound: C1=CC=C(C=C1)C2=NC(=C(N2)C3=CC=NC=C3)C4=CC(=C(C=C4)Cl)O
Method in brief: as §1

ralimetinib = compound: CC(C)(C)Cn1c(N)nc2ccc(-c3[nH]c(C(C)(C)C)nc3-c3ccc(F)cc3)nc21 [ralimetinib]
Method in brief: as §1

[15] = compound: CC(C)C[C@@H](C=O)NC(=O)[C@H](CC(C)C)NC(=O)[C@H](CC(C)C)NC(=O)OCc1ccccc1
Method in brief: as §1

Measured: log2 fold change

CDC42BPG (UniProt Q6DT37)
inactive: erlotinib 0.082 | [1] -0.079 | [2] 0.146

CHD1 (UniProt O14646)
inactive: [3] 0.132 | [4] -0.44 | [5] 0.042 | [6] -0.023 | [7] -0.115 | [8] -0.032

CENPM (UniProt Q9NSP4)
inactive: erlotinib -0.186 | [1] 0.152 | [2] 0.015

CENPK (UniProt Q9BS16)
inactive: erlotinib 0.116 | [1] 0.026 | [9] -0.079 | IRAK-1-4 Inhibitor I 0.164 | ibrutinib -0.1 | [2] -0.268 | pinometostat -0.292 | [10] -0.014

Reprinted from the results shown (2 entries):
CHD1 (UniProt O14646)
inactive: [3] 0.132 | [4] -0.44 | [5] 0.042 | [6] -0.023 | [7] -0.115 | [8] -0.032

CENPM (UniProt Q9NSP4)
inactive: erlotinib -0.186 | [1] 0.152 | [2] 0.015

Following part.

CDSN (UniProt Q15517)
inactive: [3] -0.043 | [4] 0.144 | [5] 0.377 | [9] -0.362 | [6] -0.373 | [11] -0.129 | [12] -0.384 | IRAK-1-4 Inhibitor I 0.18 | ibrutinib 0.304 | [7] -0.261 | [8] 0.294 | pinometostat -0.032 | [10] -0.623 | [13] 1.26

CEP85 (UniProt Q6P2H3)
inactive: [3] -0.192 | [5] 0.085 | [9] -0.117 | [14] 0.012 | [6] 0.069 | ibrutinib -0.29 | [7] 0.015 | ralimetinib -0.005 | [15] 0.021

CHMP2A (UniProt M0R1T5)
inactive: [3] 0.073 | [5] -0.258 | [6] -0.107 | [11] -0.187 | [12] 0.1 | [7] 0.189 | [13] 0.093

CEP128 (UniProt Q6ZU80)
inactive: [3] -0.163 | [5] 0.199 | [9] 0.158 | [6] -0.037 | [11] 0.141 | [12] -0.003 | IRAK-1-4 Inhibitor I -0.149 | ibrutinib -0.055 | [7] -0.022 | pinometostat 0.012 | [13] 0.1

CFB (UniProt P00751)
inactive: erlotinib -0.184 | [1] 0.078 | [9] -0.088 | [14] 0.104 | ibrutinib 0.234 | ralimetinib 0.08 | [2] 0.178 | [15] 0.053 | [10] -0.099

CHFR (UniProt Q96EP1)
inactive: [4] 0.092 | [11] -0.093 | [12] 0.047 | IRAK-1-4 Inhibitor I 0.028 | [8] -0.04 | pinometostat 0.096 | [13] -0.038

CEBPZ (UniProt Q03701)
inactive: [11] -0.32 | [12] -0.537 | [13] 0.107

CDH2 (UniProt P19022)
inactive: IRAK-1-4 Inhibitor I -0.055 | pinometostat -0.012

CEP83 (UniProt Q9Y592)
inactive: [9] -0.003 | [14] 0.09 | IRAK-1-4 Inhibitor I 0.138 | ibrutinib 0.064 | ralimetinib 0.05 | [15] 0.222 | pinometostat 0.131

CFAP58 (UniProt Q5T655)
inactive: [14] 0.047 | ralimetinib -0.04 | [15] -0.035

CDC6 (UniProt Q99741)
inactive: [4] -0.284 | [8] 0.436

CDK5RAP2 (UniProt Q96SN8)
inactive: [4] -0.138 | [9] -0.06 | [11] 0.014 | [12] -0.13 | IRAK-1-4 Inhibitor I -0.046 | ibrutinib -0.245 | [8] 0.109 | pinometostat 0.103 | [13] -0.038

CDCA8 (UniProt Q53HL2)
inactive: [14] -0.038 | ralimetinib 0.071 | [15] 0.246

CEP135 (UniProt Q66GS9)
inactive: [3] 0.04 | [4] -0.038 | [5] -0.205 | [9] 0.097 | [6] 0.113 | IRAK-1-4 Inhibitor I 0.175 | ibrutinib 0.198 | [7] -0.085 | [8] 0.02 | pinometostat -0.01

Reference: the supplement of paper PMC10849652
